# Reference: publication PMC7819943, “Rice protein-binding microarrays: a tool to detect cis-acting elements near promoter regions in rice”
# The other results are listed elsewhere or left out.
# Biological target: T1, OsSMF1 (Oryza sativa, UniProt Q6ZLB0 1-436)
# T1 sequence: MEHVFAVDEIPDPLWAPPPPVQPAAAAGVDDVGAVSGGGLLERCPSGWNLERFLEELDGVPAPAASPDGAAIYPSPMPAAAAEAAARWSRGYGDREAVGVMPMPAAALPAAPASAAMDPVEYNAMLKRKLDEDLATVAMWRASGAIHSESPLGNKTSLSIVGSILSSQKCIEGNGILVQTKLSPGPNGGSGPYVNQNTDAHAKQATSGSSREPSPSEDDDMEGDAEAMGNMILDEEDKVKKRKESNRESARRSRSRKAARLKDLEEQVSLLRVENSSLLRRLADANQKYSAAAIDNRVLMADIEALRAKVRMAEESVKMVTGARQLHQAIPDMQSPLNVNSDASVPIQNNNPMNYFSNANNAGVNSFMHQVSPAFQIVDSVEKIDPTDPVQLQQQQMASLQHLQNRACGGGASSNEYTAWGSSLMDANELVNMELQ
# Test: protein-binding microarray (RPBM); PBS, 2% BSA, 51.3 ng/ul salmon testes DNA, 50 uM zinc acetate, 200 nM TF, 25 C, 1 h; high values mean tight binding
# Conditions: protein: recombinant; tags: N-terminal polyhistidine and DsRed monomer fusion (pET32a); chain copies: 2; label: CyDye5-dUTP incorporated in the synthesized complementary strand; 3' TTTTT single-stranded linker to array surface; dsDNA, one strand shown
# Summary of the method: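 Using Ni–NTA, transcription factors fused N-terminally to polyhistidine and DsRed were purified after expression in E. coli BL21-CodonPlus. These were incubated at 200 nM with a blocked, double-stranded custom Agilent array for 1 h at 25 °C in a buffer containing 50 µM zinc acetate, and the array was washed. The binding signal is per-feature fluorescence intensity (arbitrary units) on an Axon 4000B scanner.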
row,Sequence,binding signal
1,TGGGATAGGAGAGGTTAAGACTTGAGCGTGGATTTGGGTCCGGAGTCACCTAGTGCAG,3330 fluorescence intensity (a.u.)
2,CATGCCCATCCTCGGCGCCGCCGTCACCGACTCTTGCTGACGGAGTCACCTAGTGCAG,4820 fluorescence intensity (a.u.)
3,TCACCAATCACCTGCCCTCACACCAACACGCCACGCGAACCGGAGTCACCTAGTGCAG,3750 fluorescence intensity (a.u.)
4,TGGGCGATTGGGGCGGCAACCGGCCGATGACGAGGAGAAACGGAGTCACCTAGTGCAG,3230 fluorescence intensity (a.u.)
5,GGGCAGACATTCCATGCCATGTGGCTTGAGTTATGCATTGCGGAGTCACCTAGTGCAG,6590 fluorescence intensity (a.u.)
6,AAATAAATAATAGGTGACGTAATCTATTAATAGTGTAGTTCGGAGTCACCTAGTGCAG,3830 fluorescence intensity (a.u.)
7,CTCCTCCTCTGATCTTCTCCTCCTTGTCATGCGATCGAGCCGGAGTCACCTAGTGCAG,4300 fluorescence intensity (a.u.)
8,CGCGTCCCTTGTTGCCACGCACTACCCGAGTACTCCGCCTCGGAGTCACCTAGTGCAG,3780 fluorescence intensity (a.u.)
9,TCCGCCGCCCTAACCAGTCACCACCGCCACCAACGCAGCGCGGAGTCACCTAGTGCAG,3600 fluorescence intensity (a.u.)
10,TTGGTGAGGGTTTGGGTTTGGTGGTGGAGTGGAGTGGAGTCGGAGTCACCTAGTGCAG,3220 fluorescence intensity (a.u.)
11,AGCAAAGCTGCCAGAGCACGGCACAGCACACAGGTGACGGCGGAGTCACCTAGTGCAG,3450 fluorescence intensity (a.u.)
12,CTCTAAATTTGTTCGTCCGTGTCGTCCAGGTCACCAAACTCGGAGTCACCTAGTGCAG,7370 fluorescence intensity (a.u.)
13,AATGTCCAAATTCTTTGTATTATTATATGCCACATCTTAGCGGAGTCACCTAGTGCAG,4510 fluorescence intensity (a.u.)
14,GCTCCAAAACGAGTGGATTTGAGAAGAAGAGATGACGGGGCGGAGTCACCTAGTGCAG,5830 fluorescence intensity (a.u.)
15,AAGTGCAGTTTTGTATTATTCACGTTCAACGTTTGACCACCGGAGTCACCTAGTGCAG,3280 fluorescence intensity (a.u.)
16,TTTCCAACAGAGAAAAGAAATCTGCAAATGCCATACGGTGCGGAGTCACCTAGTGCAG,6390 fluorescence intensity (a.u.)
17,GTGCATTGCCCGCGTGTCCGGCGTGCGCGAGGGTTTAAACCGGAGTCACCTAGTGCAG,3210 fluorescence intensity (a.u.)
18,AGTATCCGACGTGGCGAACACTGTCCACCTCATACCCGGGCGGAGTCACCTAGTGCAG,15000 fluorescence intensity (a.u.)
19,CAGCCTCCGTAGCAGACACGTACAACGTACCGAGCAACCTCGGAGTCACCTAGTGCAG,3710 fluorescence intensity (a.u.)
20,TGTCCAATCTGGGAAGTGGGAACGAAGGCATTGAGATGAGCGGAGTCACCTAGTGCAG,19800 fluorescence intensity (a.u.)
21,TGCTACAGGTGACGATCAGTCGACACATCATGCCTTATCGCGGAGTCACCTAGTGCAG,7660 fluorescence intensity (a.u.)

# Taken from the results shown for reference:
row,Sequence,binding signal
16,TTTCCAACAGAGAAAAGAAATCTGCAAATGCCATACGGTGCGGAGTCACCTAGTGCAG,6390 fluorescence intensity (a.u.)
17,GTGCATTGCCCGCGTGTCCGGCGTGCGCGAGGGTTTAAACCGGAGTCACCTAGTGCAG,3210 fluorescence intensity (a.u.)
18,AGTATCCGACGTGGCGAACACTGTCCACCTCATACCCGGGCGGAGTCACCTAGTGCAG,15000 fluorescence intensity (a.u.)

# Remaining list, next part

row,Sequence,binding signal
1,CCATGCCCAACTTCATCGTCAACAAGCAATGACCAAAGCGCGGAGTCACCTAGTGCAG,3200 fluorescence intensity (a.u.)
2,ACCCTGACATGTTCCTGGTTGATCCCTCGGAATCGCCGCACGGAGTCACCTAGTGCAG,3200 fluorescence intensity (a.u.)
3,GCGCGGAATTGGCCTGCAAAGCCACGGTCCCCACTACCACCGGAGTCACCTAGTGCAG,10000 fluorescence intensity (a.u.)
4,TTCATCAGCTGAGGTCGGCACTTGCTCATCTTTGCCGATTCGGAGTCACCTAGTGCAG,3180 fluorescence intensity (a.u.)
5,CACCCATCTCCTTGCCGGCCTCTCCACCCCGCCTCTTTCGCGGAGTCACCTAGTGCAG,19000 fluorescence intensity (a.u.)
6,GTATATATATATATATGTGTGTGTGTGTGTATATATATATCGGAGTCACCTAGTGCAG,4370 fluorescence intensity (a.u.)
7,CGCCAGCTGTACGTAGATCGCGTCACCCGAGCAGCGTTTCCGGAGTCACCTAGTGCAG,5200 fluorescence intensity (a.u.)
8,TATCCGCACCACGCCACGCCACGACACCGAAACCGACTTCCGGAGTCACCTAGTGCAG,7350 fluorescence intensity (a.u.)
9,TGGGCCATCCTATCCATCCATCTCATCATCCCATCGCCCACGGAGTCACCTAGTGCAG,4300 fluorescence intensity (a.u.)
10,TCGTGAGGCGAGAGGGCACGTGACGCGGTGGGGCCCACCTCGGAGTCACCTAGTGCAG,3930 fluorescence intensity (a.u.)
11,TCTCGGCCGGCCCATTTCCTCCCCGTCAGCCCACAACCAGCGGAGTCACCTAGTGCAG,4610 fluorescence intensity (a.u.)
12,GTTAGTGGTAGTAAGTAGTTAACCTTATGACGAAGTAATCCGGAGTCACCTAGTGCAG,3240 fluorescence intensity (a.u.)
13,TTATTAACTTCTAACTTGACGATGCTCAGAGGCGACGCAACGGAGTCACCTAGTGCAG,32400 fluorescence intensity (a.u.)
14,AATCAAGCCACTAAAACCCCAGCTAATAACTATAAGTACGCGGAGTCACCTAGTGCAG,17900 fluorescence intensity (a.u.)
15,CTATGACGGGTCGAAAACGGAACCCGTCAAAGATGAGTTACGGAGTCACCTAGTGCAG,18300 fluorescence intensity (a.u.)
16,GAAAATGGTTTACACAACGTACCGCCATGTCAATGTTATCCGGAGTCACCTAGTGCAG,3370 fluorescence intensity (a.u.)
17,GTTTATTATTATTGCGTGTAACTGACATGTGGGCCCAATGCGGAGTCACCTAGTGCAG,4830 fluorescence intensity (a.u.)
18,CCAACGTCGAGGATCCTGTGAGCCAGCGCGTGCATGCCGCCGGAGTCACCTAGTGCAG,3370 fluorescence intensity (a.u.)
19,ATTGAAACATGATCCGAGTCATAGCCTGACTGGAATTCTTCGGAGTCACCTAGTGCAG,5810 fluorescence intensity (a.u.)
20,CCATATATTCCCTTGCACACACACGCAGTCAGGGCAGGCACGGAGTCACCTAGTGCAG,3770 fluorescence intensity (a.u.)
21,AGTAGGGATGCTCTTAACGGATGACGAAGCTAAGCTTGCTCGGAGTCACCTAGTGCAG,3240 fluorescence intensity (a.u.)
